# Measured values published in the supplement of paper PMC9135407.
# Several values for one entry are separate records, joined by “and”; a condition that tells them apart may be missing. Identical values can stand only once. ± gives the standard deviation of the averaged measurements. Some of the results follow. Plates or batches differ in their baseline, so values are only roughly comparable.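 Assay uses culture-activated primary human stellate myofibroblasts; lipid droplet recovery indicates inactivation. Measured: proportion of Hoechst-counted cells over a plate-specific Bodipy cutoff, duplicate wells, DMSO and nortriptyline as per-plate negative and positive controls. A hit scores, control-normalized, above the plate's top-tenth-percentile nortriptyline wells or ranks among its three best wells. Final well concentrations not reported.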
# System: primary human hepatic stellate cells (donor 1)
# Test: percent Bodipy-positive cells; higher = more lipid droplet accumulation
# Conditions: 48 h
# [1] = library stock concentration: 10 mM
# [2] = library stock concentration: 3.33 mM
# [3] = library stock concentration: 7.2 mM
# [4] = library stock concentration: 400 uM
# [5] = library stock concentration: 80 uM
# [6] = library stock concentration: 2 mM
smiles,measurement,setting,value
COc1c2c(nc3ccccc13)OC(C(C)(O)CO)C2 (stereo not given) [Dubinidine],percent Bodipy-positive cells,,10.5 ± 3.7%
OCc1cc(C(O)CNCCCCCCOCCCCc2ccccc2)ccc1O (stereo not given) [Salmeterol],percent Bodipy-positive cells,[1],86.8 ± 1.4%
CC(=O)Oc1cc2c(s1)CCN(C(C(=O)C1CC1)c1ccccc1F)C2 (stereo not given) [Prasugrel],percent Bodipy-positive cells,[2],10.9 ± 0.35%
same,percent Bodipy-positive cells,[1],15.5 ± 4.7%
CC(=O)Oc1cc2c(s1)CCN(C(C(=O)C1CC1)c1ccccc1F)C2 (stereo not given),percent Bodipy-positive cells,[1],29.6 ± 4.4%
Cn1cnc([N+](=O)[O-])c1Sc1ncnc2[nH]cnc12 [Azathioprine],percent Bodipy-positive cells,,27.2 ± 6.1%
same,percent Bodipy-positive cells,[2],6.17 ± 1.6%
same,percent Bodipy-positive cells,[3],1.87 ± 2.1%
same,percent Bodipy-positive cells,[1],14.8% and 24% and 11.2%
CC(C)C(=O)Nc1ccc([N+](=O)[O-])c(C(F)(F)F)c1,percent Bodipy-positive cells,[1],49.3 ± 20%
CC(C)C(=O)Nc1ccc([N+](=O)[O-])c(C(F)(F)F)c1 [Flutamide],percent Bodipy-positive cells,,24.7 ± 2.6%
same,percent Bodipy-positive cells,[2],7.42 ± 1.3%
same,percent Bodipy-positive cells,[3],11.4% and 8.87%
CC(C)(O)C1CCC(C)(C2C(O)CC3(C)C4CC(OC5OC(CO)C(O)C(O)C5O)C5C(C)(C)C(OC6OCC(O)C(O)C6O)CCC56CC46CCC23C)O1 (stereo not given) [Astragaloside A],percent Bodipy-positive cells,[2],5.91 ± 0.92%
same,percent Bodipy-positive cells,[1],11.3 ± 0.77%
OCCN1C[C@H](O)[C@@H](O)[C@H](O)[C@H]1CO,percent Bodipy-positive cells,[1],10.5 ± 3%
OCCN1C[C@H](O)[C@@H](O)[C@H](O)[C@H]1CO [Miglitol],percent Bodipy-positive cells,[2],9.5 ± 0.22%
same,percent Bodipy-positive cells,library stock concentration: 9.7 mM,21 ± 13%
CCC(=O)NC1CCc2cccc(OC)c2C1 (stereo not given),percent Bodipy-positive cells,[1],5.91 ± 1.9%
COc1ccccc1OCCNCC(O)COc1cccc2[nH]c3ccccc3c12 (stereo not given) [Carvedilol],percent Bodipy-positive cells,[1],80.5 ± 2.3%
S=C(NCc1ccc2c(c1)OCO2)N1CCN(c2ncnc3c2oc2ccccc23)CC1 [Amuvatinib (MP-470)],percent Bodipy-positive cells,[2],10.5 ± 0.23%
same,percent Bodipy-positive cells,[1],24.9 ± 0.95%
S=C(NCc1ccc2c(c1)OCO2)N1CCN(c2ncnc3c2oc2ccccc23)CC1 [Amuvatinib  (MP-470) (0.4 mM)],percent Bodipy-positive cells,[4],14.6 ± 2.6%
S=C(NCc1ccc2c(c1)OCO2)N1CCN(c2ncnc3c2oc2ccccc23)CC1,percent Bodipy-positive cells,[5],21.2 ± 1.5%
same,percent Bodipy-positive cells,[4],23.7 ± 9.6%
same,percent Bodipy-positive cells,[6],17.1 ± 1.4%
same,percent Bodipy-positive cells,[1],24.3 ± 3.9%
S=C(NCc1ccc2c(c1)OCO2)N1CCN(c2ncnc3c2oc2ccccc23)CC1 [Amuvatinib  (MP-470) (10 mM)],percent Bodipy-positive cells,[1],13.9 ± 2.2%
S=C(NCc1ccc2c(c1)OCO2)N1CCN(c2ncnc3c2oc2ccccc23)CC1 [Amuvatinib  (MP-470) (2 mM)],percent Bodipy-positive cells,[6],15 ± 0.83%
CC(=O)OCC[N+](C)(C)C [Acetylcholine Chloride],percent Bodipy-positive cells,[2],8.05 ± 0.96%
same,percent Bodipy-positive cells,[1],28.6 ± 18%
CC(=O)OCC[N+](C)(C)C [Miochol],percent Bodipy-positive cells,[1],41.9 ± 5%
CC(=O)OCC[N+](C)(C)C [Acetylcholine],percent Bodipy-positive cells,[1],13.4 ± 2.6%
same,percent Bodipy-positive cells,library stock concentration: 11 mM,2 ± 0.046%
N[C@@H](Cc1cc(-c2ccc(Cl)cc2Cl)cc(CP(=O)(O)O)c1O)C(=O)O,percent Bodipy-positive cells,[1],5.05 ± 1.4%
CC1(C)CCC2=C(O1)c1ccccc1C(=O)C2=O [Beta-lapachone],percent Bodipy-positive cells,library stock concentration: 20.6 mM,90.9 ± 1%
CC1(C)CCC2=C(O1)c1ccccc1C(=O)C2=O [Beta-Lapachone],percent Bodipy-positive cells,[2],99.3 ± 1%
same,percent Bodipy-positive cells,[1],99.19 ± 0.32%
CC1(C)CCC2=C(O1)c1ccccc1C(=O)C2=O [beta-Lapachone],percent Bodipy-positive cells,[1],99.66 ± 0.48%
O=C(Nc1ccncc1)Nc1c(Cl)cc(Cl)cc1Cl [Rho Kinase Inhibitor II],percent Bodipy-positive cells,[2],11.5 ± 1.1%
O=C1OC(OC(=O)c2cccnc2Nc2cccc(C(F)(F)F)c2)c2ccccc21 (stereo not given) [Talniflumate],percent Bodipy-positive cells,[1],8.09 ± 3.5%
COC(=O)C1=C(C)NC(C)=C(C(=O)OC(C)C)C1c1cccc2nonc12 (stereo not given) [Isradipine],percent Bodipy-positive cells,,12.2 ± 2.4%
same,percent Bodipy-positive cells,[2],4.74 ± 1.9%
same,percent Bodipy-positive cells,[1],20.6% and 10%
COC(=O)C1=C(C)NC(C)=C(C(=O)OC(C)C)C1c1cccc2nonc12 (stereo not given),percent Bodipy-positive cells,library stock concentration: 9.9 mM,19 ± 5.1%
CCN(CC)Cc1cc(Nc2ccnc3cc(Cl)ccc23)ccc1O.Cl.Cl.O.O [Amodiaquin dihydrochloride dihydrate],percent Bodipy-positive cells,,96.3 ± 1.6%
COc1cc(Oc2ccnc3cc(OC)c(OC)cc23)ccc1NC(=O)NC(C)c1nccs1 (stereo not given),percent Bodipy-positive cells,[5],8.11 ± 2.1%
same,percent Bodipy-positive cells,[4],9.76% and 20%
same,percent Bodipy-positive cells,[6],7.86% and 27.9%
Cn1c(Nc2ccc(C(F)(F)F)cc2)nc2cc(Oc3ccnc(-c4ncc(C(F)(F)F)[nH]4)c3)ccc21,percent Bodipy-positive cells,[5],4.57 ± 0.6%
same,percent Bodipy-positive cells,[4],5.62 ± 0.39%
same,percent Bodipy-positive cells,[6],4.71 ± 0.87%
same,percent Bodipy-positive cells,[2],6.01 ± 0.8%
same,percent Bodipy-positive cells,[1],6.78% and 2.43%
COc1ccc(/C=C\c2cc(OC)c(OC)c(OC)c2)cc1O [Combrestatin A4],percent Bodipy-positive cells,library stock concentration: 1 mM,44 ± 16%
C(=C(/CC1)\CCN1C)(/c2c3cccc2)\c4c(cccc4)C=C3.Cl [Cyproheptadine hydrochloride],percent Bodipy-positive cells,[1],97.15 ± 0.7%
O=C(O)/C=C/c1cnc[nH]1 [4-Imidazoleacrylic acid],percent Bodipy-positive cells,[1],24 ± 1.2%
C[C@H](CCC(=O)O)[C@H]1CC[C@H]2[C@@H]3CC[C@@H]4C[C@H](O)CC[C@]4(C)[C@H]3CC[C@]12C [Lithocholic acid],percent Bodipy-positive cells,,8.89 ± 1.7%
same,percent Bodipy-positive cells,[2],6.71 ± 2.7%
same,percent Bodipy-positive cells,[1],22.5% and 20.5%
CC(=O)SCC(Cc1ccccc1)C(=O)NCC(=O)OCc1ccccc1 (stereo not given) [Racecadotril],percent Bodipy-positive cells,,35.7 ± 4.3%
same,percent Bodipy-positive cells,[2],8.46 ± 2%
same,percent Bodipy-positive cells,library stock concentration: 5.2 mM,7.2 ± 0.69%
same,percent Bodipy-positive cells,[1],21.3 ± 6%
CC(=O)SCC(Cc1ccccc1)C(=O)NCC(=O)OCc1ccccc1 (stereo not given),percent Bodipy-positive cells,[1],10.5 ± 3.2%
